Some peptides are written in HELM: one residue between dots, names in brackets for other building blocks, links after the first $.

A short description of this data set: general procedure: Fmoc solid-phase peptide synthesis; Fmoc-Rink Amide-MBHA Resin, loading 0.355 mmol/g; HATU/HOBt (1:1, 4 equiv.). The following applies: whole synthesis, total yield.
For the substance “PEPTIDE1{[FITC].[Acp].E.A.E.A.E.A.E.A.E.A.E.A.E.A.E.A.E.A.E.A.E.A.E.A.E.A.E.A.E.A.[am]}$$$$V2.0”, the isolated yield stood at 7.2% total yield.
Next, “PEPTIDE1{[Nap].F.F.[Acp].E.A.E.A.E.A.E.A.E.A.E.A.E.A.E.A.E.A.E.A.E.A.E.A.E.A.E.A.E.A.[am]}$$$$V2.0”: “total yield 7.1%”.
Next, Fmoc N IHVT IP-E-DL ADW I-K-K NH2: 6.8 % total yield.
As for “PEPTIDE1{[Fmoc].[Acp].S.G.Q.Y.A.S.Y.H.C.W.C.W.R.D.P.G.R.S.G.G.S.K.[am]}$$$$V2.0”, the isolated yield entry is listed as “total yield 7.8%”.
Next, “PEPTIDE1{[Fmoc].[Acp].E.A.E.A.E.A.E.A.E.A.E.A.E.A.E.A.E.A.E.A.E.A.E.A.E.A.E.A.E.A.[am]}$$$$V2.0”: 8.9% total yield.
Consider “PEPTIDE1{[Fmoc].[Acp].D.G.R.G.S.L.E.G.R.G.H.K.D.G.[am]}$$$$V2.0”, for which the isolated yield result is recorded as “total yield 7.9%”.

The values are drawn from PMC10891067 (Nature Communications, 2024).
